These are yes or no findings as the source states them, for the method shown. Binding seen in cells or lysates may run through a third protein. Some binding calls cover weakened binding; strength is not graded here.
B1: caveolin 3 (CAV3) (protein, UniProt P56539 1-151)
chain: MMAEEHTDLEAQIVKDIHCKEIDLVNRDPKNINEDIVKVDFEDVIAEPVGTYSFDGVWKVSYTTFTVSKYWCYRLLSTLLGVPLALLWGFLFACISFCHIWAVVPCIKSYLIEIQCISHIYSLCIRTFCNPLFAALGQVCSSIKVVLRKEV

The chains behind the UniProt entries cited, without tags or fusion partners. Residues count along the entry.
UniProt O95299, residues 36-355: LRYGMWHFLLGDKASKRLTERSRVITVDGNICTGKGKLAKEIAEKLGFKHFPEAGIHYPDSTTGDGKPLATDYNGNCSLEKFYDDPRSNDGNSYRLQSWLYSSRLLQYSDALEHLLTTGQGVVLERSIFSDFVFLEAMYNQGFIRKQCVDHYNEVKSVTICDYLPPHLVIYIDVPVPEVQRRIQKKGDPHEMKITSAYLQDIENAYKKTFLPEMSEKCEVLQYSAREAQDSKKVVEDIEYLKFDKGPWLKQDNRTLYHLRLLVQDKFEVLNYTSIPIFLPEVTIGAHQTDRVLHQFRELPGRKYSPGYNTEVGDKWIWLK

Tests used:
[1] = target: T1, caveolin 3 (CAV3) (human (endogenous in AC16)) (UniProt P56539); assay: co-IP; proteins extracted from mitochondria isolated from AC16 cells; IP with rabbit anti-CAV3 or rabbit anti-NDUFA10 antibody; protein A/G agarose; Western blot
T1 sequence: B1 chain

[2] = target: T1, caveolin 3 (CAV3) (human (endogenous in AC16)); assay: co-IP; whole-cell lysates of cardiomyocytes in RIPA buffer with protease inhibitors; IP with rabbit anti-CAV3, rabbit anti-NDUFA10 or control IgG; protein A/G agarose; Western blot
[3] = target: NDUFA10, a subunit of mitochondrial complex I (human (endogenous in AC16)) (UniProt O95299); assay: co-IP; proteins extracted from mitochondria isolated from AC16 cells; IP with rabbit anti-CAV3 or rabbit anti-NDUFA10 antibody; protein A/G agarose; Western blot

| Molecule | binding [1] | binding [2] | binding [3] |
| --- | --- | --- | --- |
| NDUFA10, a subunit of mitochondrial complex I (from UniProt O95299 36-355) | binds | binds | – |
| B1 | – | – | binds |
